# The whole screen tested about 320,000 compounds, of which about 22,000 (6.9%) were called active. The inconclusive results got no clear call from the source; some entries with a clear call stand among them for comparison. Calls follow the shape of the dose curve; as a rule, active = well fitted inhibition curve with a large enough effect; inconclusive = small, poorly fitted or top-dose-only effect, or another doubt; inactive = no such curve, though single readings can be large or run the other way. Potencies beside an inconclusive call are fits to weak or partial responses and may not hold up.
# Assay: Primary qHTS for delayed death inhibitors of the malarial parasite plastid, 96 hour incubation
# Details: P. falciparum luciferase reporter growth; series mostly up to 28.7 µM
# Procedure, shortened: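 Plates of compound plus infected erythrocytes (2% hematocrit, 0.05% parasitemia final) incubate 96 hours, 37 C, 5% CO2. Detection reagent added; reduced luminescence from the parasites' luciferase reporter flags inhibition.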
# Potency is read from the fitted curve at half-maximal effect.
row,Structure (SMILES),Potency
1,CC(C)n1cc(CN2CCN(C)C(CCO)C2)c2ccccc21 (stereo not given),"inconclusive: 1.04 µM [inhibitor, full curve, poor fit]"
2,Cc1ccccc1NS(=O)(=O)c1cc(C(=O)NCCC2=CCCCC2)ccc1C,"inconclusive: 18.5 µM [inhibitor, single point]"
3,CC(C(=O)NCc1ccccc1)N1CCN(c2ccc(F)cc2)CC1 (stereo not given),inactive
4,COCCN(Cc1nc2ccccc2c(=O)[nH]1)C(=O)COc1ccccc1-c1ccccc1,"inconclusive: 10.4 µM [inhibitor, partial curve, poor fit]"
5,Cn1c(=O)c(C(=O)N2CCc3ccccc32)cc2cccnc21,inactive
6,O=S(=O)(Nc1cccc(C(F)(F)F)c1)c1cnc[nH]1,active: 10.4 µM
7,COCCNC(=S)NNc1ccc(Cl)c(C(=O)O)c1,inactive
8,Cc1ccc(C)c(N2CCN(C(=O)CN3C(=S)NC(C)(C)CC3C)CC2)c1 (stereo not given),"inconclusive: 18.5 µM [inhibitor, single point]"
9,CN(CC(=O)Nc1ccccn1)S(=O)(=O)c1ccc(Cl)cc1,"inconclusive: 10.4 µM [inhibitor, single point]"
10,CC(C)n1cc(/C=C2/SC(=O)N(CC(=O)N3CCCC3)C2=O)c2ccccc21,"inconclusive: 0.37 µM [inhibitor, partial curve, poor fit]"
11,Cc1n[nH]c(C)c1S(=O)(=O)Nc1ccc2c(c1)OCCO2,inactive
12,O=C(c1cccc(NC2=NC3CS(=O)(=O)CC3S2)c1)N1CCN(c2ccc(F)cc2)CC1 (stereo not given),"inconclusive: 14.7 µM [inhibitor, partial curve, poor fit]"
13,Cn1c(=O)c2c(nc(N3CCCC3)n2C)n(C)c1=O,inactive
14,Cc1c(C(=O)N(C)CCn2ccnc2C)oc2c(F)cccc12,"inconclusive: 13.1 µM [inhibitor, single point]"
15,O=[N+]([O-])c1ncccc1OCc1ccc(Br)cc1F,inactive
16,O=C(NNC1=NC2(CCCC2)Cc2ccccc21)c1ccncc1,"inconclusive: 18.5 µM [inhibitor, single point]"
17,O=S(=O)(NCc1ccncc1)c1ccc(S(=O)(=O)NCC2CCCO2)cc1 (stereo not given),"inconclusive: 13.1 µM [inhibitor, single point]"
18,COc1cc(NC(=O)CSc2ccc(-c3ccco3)nn2)cc(OC)c1,active: 10.4 µM
19,O=C(Nc1nc2c(s1)CCc1ccccc1-2)c1cccs1,"inconclusive: 14.7 µM [inhibitor, partial curve, poor fit]"
20,CC1(C)C2CC=C(/C=N/NC(=O)c3ccccc3Br)C1C2 (stereo not given),"inconclusive: 10.4 µM [inhibitor, partial curve]"
21,Cc1cccnc1Nc1nc(-c2ccccc2)cs1,inactive
22,COc1c(C)cc(C(=O)C2CCCN(C(=O)c3cc(C)nc(C)n3)C2)cc1C (stereo not given),"inconclusive: 5.22 µM [inhibitor, partial curve, poor fit]"
23,NC(=O)CC(NC(=O)c1cccc(Br)c1)c1ccc(NCCN2CCOCC2)c([N+](=O)[O-])c1 (stereo not given),inactive
24,CCOC(=O)C1(Cc2cccc(Cl)c2)CCCN(C(=O)c2cc(C(C)C)nn2C)C1 (stereo not given),inactive
25,Cc1nn2c(-n3ccnc3C)c3c(nc2c1-c1ccccc1)CCC3,"inconclusive: 11.7 µM [inhibitor, single point]"

row,Structure (SMILES),Potency
1,c1ccc(-c2noc(CN3CCCC(OCc4ccccn4)C3)n2)cc1 (stereo not given),"inconclusive: 5.86 µM [inhibitor, partial curve, poor fit]"
2,O=C(Cc1ccc(Cl)c(Cl)c1)Nc1cccc2ncccc12,"inconclusive: 18.5 µM [inhibitor, single point]"
3,CCOc1ccc(S(=O)(=O)n2cnc3ccccc32)cc1,"inconclusive: 18.5 µM [inhibitor, single point]"
4,CCOC(=O)c1ccc(NC(=S)N(Cc2cccnc2)Cc2ccco2)cc1,"inconclusive: 0.522 µM [inhibitor, full curve, poor fit]"
5,CCCCn1c(N)c(N(CC(C)C)C(=O)C2CC(=O)N(Cc3ccco3)C2)c(=O)[nH]c1=O (stereo not given),"inconclusive: 13.1 µM [inhibitor, single point]"
6,CCc1ccc(C(=O)NNC(=O)OC)cc1,"inconclusive: 20.8 µM [inhibitor, partial curve, poor fit]"
7,Cc1ccc(C2=NN3C(=O)c4ccccc4C3C2)cc1 (stereo not given),active: 8.28 µM
8,O=C(Nc1cccc(S(=O)(=O)N2CCCCC2)c1)c1ccc([N+](=O)[O-])o1,active: 9.28 µM
9,O=C1COc2ccccc2N1Cc1ccccc1Cl,"inconclusive: 0.0828 µM [inhibitor, full curve, poor fit]"
10,N#Cc1ccc(S(=O)(=O)N2CCCN(c3ccc(C(F)(F)F)cn3)CC2)cc1,"inconclusive: 18.5 µM [inhibitor, single point]"
11,Cc1ccccc1N1C(=O)CC(Sc2nnc(-c3ccccc3)o2)C1=O (stereo not given),inactive
12,CCn1c(C)nc2cc(C(=O)N/N=C/c3ccc(O)cc3)ccc21,inactive
13,O=C(NCc1nnnn1-c1ccc(F)c(F)c1)c1ccc2ccccc2c1,"inconclusive: 1.47 µM [inhibitor, partial curve]"
14,O=C(COC(=O)CCNS(=O)(=O)c1ccccc1F)Nc1nnc(-c2ccccc2)o1,"inconclusive: 11.7 µM [inhibitor, partial curve, poor fit]"
15,CC1CCN(CCCNC(=O)c2cc3sccc3n2C)CC1,inactive
16,Cc1ccnc(NC(=O)Nc2ccc(Br)cc2Cl)c1,inactive
17,C[C@H]1CC[C@H]2C(=O)N3[C@H](c4ccccc4Br)[C@@H](C)CC[C@H]3C(=O)N2[C@@H]1c1ccccc1Br,active: 5.22 µM
18,COc1ccc(NC(=O)c2c(C)oc3c2CCCC3)cc1,"inconclusive: 18.5 µM [inhibitor, single point]"
19,C/C(=N/NC(=O)c1cc(C2CC2)[nH]n1)c1cccs1,inactive
20,O=C1C2ON(c3ccccc3)C(c3ccccc3F)C2C(=O)N1c1ccccc1 (stereo not given),inactive
21,COc1cc2c(cc1OC)C(C)N(C(=O)/C=C/c1cc(OC)c(OC)c(OC)c1)CC2 (stereo not given),"inconclusive: 1.17 µM [inhibitor, full curve]"
22,COc1ccc(C(C(=O)NCC2CCCO2)N(Cc2ccccc2)C(=O)CNC(=O)c2ccco2)cc1OC (stereo not given),inactive
23,N/C(=N\OC(=O)c1ccco1)c1ccc(Cl)cc1,inactive
24,CN(c1ccc(C(=O)N2CCN(c3ccccc3F)CC2)cc1)S(=O)(=O)c1ccccc1,inactive
25,Cc1sc(NC(=O)c2ccccc2F)c(CN2CCCCC2)c1C,"inconclusive: 11.7 µM [inhibitor, single point]"

# Six records drawn at random from the list so far, as already listed:
row,Structure (SMILES),Potency
13,Cn1c(=O)c2c(nc(N3CCCC3)n2C)n(C)c1=O,inactive
7,Cc1ccc(C2=NN3C(=O)c4ccccc4C3C2)cc1 (stereo not given),active: 8.28 µM
13,O=C(NCc1nnnn1-c1ccc(F)c(F)c1)c1ccc2ccccc2c1,"inconclusive: 1.47 µM [inhibitor, partial curve]"
17,C[C@H]1CC[C@H]2C(=O)N3[C@H](c4ccccc4Br)[C@@H](C)CC[C@H]3C(=O)N2[C@@H]1c1ccccc1Br,active: 5.22 µM
5,Cn1c(=O)c(C(=O)N2CCc3ccccc32)cc2cccnc21,inactive
11,Cc1ccccc1N1C(=O)CC(Sc2nnc(-c3ccccc3)o2)C1=O (stereo not given),inactive

# (further entries)

row,Structure (SMILES),Potency
1,C=C(C)C(=O)OC1(C(F)(F)F)Oc2cc(C)ccc2NC1=O (stereo not given),inactive
2,COc1nccnc1NS(=O)(=O)c1ccc(NC(=S)NC(=O)c2cccc(F)c2)cc1,inactive
3,COc1ccc(NC(=O)Cn2nnc(C(=O)NCCc3ccc(OC)c(OC)c3)c2N)cc1,"inconclusive: 11.7 µM [inhibitor, single point]"
4,NNC(=O)c1ccc(O)cc1O,inactive
5,Cc1ccccc1NC(=O)C1(C)Cc2ccccc2C(=O)O1 (stereo not given),"inconclusive: 0.0522 µM [inhibitor, full curve, poor fit]"
6,COc1ccc(C2c3[nH]c4ccccc4c3C[C@H]3C(=O)N(C4CCN(Cc5ccccc5)CC4)CC(=O)N23)cc1OC (stereo not given in full),active: 1.47 µM
7,CCCc1cc(=O)n2[nH]c(-c3ccc(Cl)cc3)cc2n1,"inconclusive: 10.4 µM [inhibitor, single point]"
8,O=C(c1cc(-c2ccc(O)cc2)on1)N1CCCCCC1,inactive
9,COc1ccc(-c2cc(-c3nnc(COC(=O)CC4CCCC4)o3)c3ccccc3n2)cc1OC,"inconclusive: 0.415 µM [inhibitor, partial curve, poor fit]"
10,O=C(Nc1cccc(Cl)c1)Nc1sccc1-c1nc2ccccc2s1,"inconclusive: 8.28 µM [inhibitor, partial curve]"
11,CCc1sc(C(=O)Nc2cc(Cl)ccc2N2CCCCC2)cc1C,active: 14.7 µM
12,CCSc1cc(C)nc2ncnn12,"inconclusive: 10.4 µM [inhibitor, single point]"
13,Fc1cccc(CN2CCC(Cc3ccccc3)CC2)c1,"inconclusive: 0.0657 µM [inhibitor, full curve, poor fit]"
14,O=C(NCCc1cccs1)c1ccc(CS(=O)Cc2ccc(Cl)cc2)o1 (stereo not given),"inconclusive: 18.5 µM [inhibitor, single point]"
15,Cc1nn(C)cc1CNC(=O)Nc1cccc(Cl)c1,inactive
16,CCc1ccc(-c2csc(NC(=O)C3CC(=O)N(c4ccc5c(c4)OCCO5)C3)n2)cc1 (stereo not given),"inconclusive: 9.28 µM [inhibitor, partial curve, poor fit]"
17,CCOC(=O)C(C)NC(=O)c1cn(-c2ccc(OC)cc2)c(=O)c2ccccc12 (stereo not given),inactive
18,COc1ccc(S(=O)(=O)N2CCOC2CNC(=O)C(=O)NCC(C)C)cc1OC (stereo not given),"inconclusive: 20.8 µM [inhibitor, partial curve, poor fit]"
19,O=C(NCCC(=O)N1CCCCCCC1)c1ccc(Br)cc1,active: 10.4 µM
20,COc1cccc(/C=C2/C(=O)NN(c3ccc(Br)cc3)C2=O)c1O,inactive
21,CC(Cc1ccccc1)NC(=O)/C=C/c1ccc(Cl)cc1 (stereo not given),"inconclusive: 18.5 µM [inhibitor, single point]"
22,N/C(=N\OC(=O)CC1CCCCC1)c1ccccn1,inactive
23,CSc1ncc(C(=O)Nc2ccccc2F)c(-c2ccccc2)n1,inactive
24,CCN(CC)c1ccc(/C=N/N2CC(=O)NC2=S)cc1,active: 3.7 µM
25,CC(C)C[C@H]1CN=C(Nc2ccccc2)N1CCCCc1ccccc1,"inconclusive: 3.29 µM [inhibitor, full curve]"

# From PubChem BioAssay AID504834 (National Center for Advancing Translational Sciences (NCATS), 2011)
